Laboratory results: PubChem BioAssay AID1259331 (Drosophila RNAi Screening Center, 2017)

Aim: 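Fly transmembrane-protein genes that affect zinc toxicity in cultured cells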 (primary screen)
Cell system: Drosophila S2R+ cells
Reagent: long dsRNA against Drosophila genes
Duration: 5 days (4 days knock-down, then 1 day zinc)
Challenge: zinc chloride at 15 mM final level for 1 day
Read-out: 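Total cellular ATP measured by luciferase luminescence as a viability proxy, turned into Z scores from three plate copies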
Reading the numbers: mean Z score: higher = more ATP than other wells, better survival under zinc; ATP luminescence: higher = more ATP, more viable cells
Active means: 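Hit when the absolute Z score is greater than 1.5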
Meaning of the calls: active = hit, ATP up or down; inactive = not a hit
The whole screen tested about 3,100 reagents; below is a random part of them. Over the whole deposit, 126 (4.1%) are marked active. 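Calls are per reagent; zinc was so toxic that few knock-downs lowered ATP further, so most hits raise ATP.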 Raw values vary from plate to plate and are shown uncorrected. Not stated in the record: the amount of reagent.

| target | DRSC id | mean Z score | ATP luminescence, replicate 1 | ATP luminescence, replicate 2 | Outcome |
| --- | --- | --- | --- | --- | --- |
| nan (nanchung) | DRSC10551 | -0.26 | 74421 | 58197 | inactive |
| nan (nanchung) | DRSC39690 | 1.26 | 86521 | 78170 | inactive |
| CG16825 | DRSC02526 | 0.12 | 54767 | 36651 | inactive |
| CG16825 | DRSC39689 | 0.206 | 62535 | 61884 | inactive |
| CG31213 | DRSC14312 | -0.277 | 38521 | 42693 | inactive |
| CG31213 | DRSC15647 | -0.126 | 34502 | 54767 | inactive |
| Gfrl (Glial cell line-derived neurotrophic family receptor-like) | DRSC15196 | 0.0109 | 40485 | 59530 | inactive |
| Gfrl (Glial cell line-derived neurotrophic family receptor-like) | DRSC25385 | -0.28 | 49934 | 52315 | inactive |
| CG5078 | DRSC11762 | -0.305 | 73186 | 54201 | inactive |
| Nmda1 (N-methyl-D-aspartate receptor-associated protein) | DRSC07479 | -0.0445 | 28879 | 31162 | inactive |
| Nmda1 (N-methyl-D-aspartate receptor-associated protein) | DRSC26357 | 0.303 | 58506 | 61198 | inactive |
| zyd (zydeco) | DRSC20716 | -0.142 | 41616 | 43838 | inactive |
| zyd (zydeco) | DRSC39493 | -0.561 | 47171 | 31145 | inactive |
| Ostgamma (Oligosaccharide transferase gamma subunit) | DRSC03074 | – | 4.29e5 | 4.49e5 | inactive |
| Ostgamma (Oligosaccharide transferase gamma subunit) | DRSC39487 | 0.145 | 53208 | 51406 | inactive |
| Or82a (Odorant receptor 82a) | DRSC11996 | -1.01 | 46869 | 51649 | inactive |
| Or82a (Odorant receptor 82a) | DRSC39482 | -0.287 | 41771 | 48393 | inactive |
| CG15890 | DRSC19737 | 0.853 | 76033 | 84455 | inactive |
| emp (epithelial membrane protein) | DRSC04019 | -0.441 | 36953 | 38989 | inactive |
| emp (epithelial membrane protein) | DRSC04683 | -0.493 | 25760 | 31656 | inactive |
| ppk18 (pickpocket 18) | DRSC02216 | -0.855 | 35736 | 34313 | inactive |
| ppk18 (pickpocket 18) | DRSC02217 | 0.0954 | 54167 | 36679 | inactive |
| ppk18 (pickpocket 18) | DRSC39853 | -0.0244 | 57682 | 53952 | inactive |
| mnd (minidiscs) | DRSC11370 | 0.0155 | 77616 | 60829 | inactive |
| mnd (minidiscs) | DRSC39608 | -0.176 | 59346 | 58456 | inactive |
| CG33110 | DRSC16137 | 0.95 | 42089 | 69841 | inactive |
| CG33110 | DRSC27221 | -0.469 | 40313 | 60786 | inactive |
| Surf4 (Surfeit 4) | DRSC16875 | -0.716 | 32462 | 45954 | inactive |
| Surf4 (Surfeit 4) | DRSC39877 | -0.269 | 47206 | 61504 | inactive |
| slif (slimfast) | DRSC27438 | -0.404 | 53756 | 52007 | inactive |
| slif (slimfast) | DRSC39791 | -0.266 | 50892 | 54143 | inactive |
| CLS (Cardiolipin synthase) | DRSC15642 | 0.842 | 48749 | 73477 | inactive |
| CLS (Cardiolipin synthase) | DRSC28289 | 1.76 | 81951 | 95074 | active |
| Sarm (Sterile alpha and Armadillo motif) | DRSC08906 | 0.165 | 45525 | 42919 | inactive |
| Sarm (Sterile alpha and Armadillo motif) | DRSC08907 | -0.919 | 29187 | 32324 | inactive |
| Sarm (Sterile alpha and Armadillo motif) | DRSC10038 | -0.467 | 67372 | 52761 | inactive |
| Sarm (Sterile alpha and Armadillo motif) | DRSC10927 | -0.00433 | 72774 | 65385 | inactive |
| Sarm (Sterile alpha and Armadillo motif) | DRSC10929 | -0.358 | 28433 | 29719 | inactive |
| sog (short gastrulation) | DRSC20379 | 1.69 | 94044 | 94007 | active |
| Tollo | DRSC11305 | -0.319 | 72928 | 55247 | inactive |
| Tollo | DRSC39718 | -0.52 | 58506 | 50686 | inactive |
| Ca-alpha1D (Ca[2+]-channel protein alpha[[1]] subunit D) | DRSC03284 | -0.104 | 50909 | 58849 | inactive |
| Ca-alpha1D (Ca[2+]-channel protein alpha[[1]] subunit D) | DRSC39679 | -0.0628 | 59432 | 57477 | inactive |
| AkhR (Adipokinetic hormone receptor) | DRSC03329 | -0.0696 | 56225 | 54184 | inactive |
| AkhR (Adipokinetic hormone receptor) | DRSC28694 | -0.702 | 59432 | 41548 | inactive |
| TRAM | DRSC18178 | 0.228 | 48064 | 45817 | inactive |
| TRAM | DRSC18651 | 1.02 | 83134 | 82900 | inactive |

Called active (from the list above):
| target | DRSC id | mean Z score | ATP luminescence, replicate 1 | ATP luminescence, replicate 2 | Outcome |
| --- | --- | --- | --- | --- | --- |
| CLS (Cardiolipin synthase) | DRSC28289 | 1.76 | 81951 | 95074 | active |
| sog (short gastrulation) | DRSC20379 | 1.69 | 94044 | 94007 | active |
